# Library screen at single concentrations

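Assay of Toxoplasma gondii numbers, read through their beta-galactosidase reporter with a colour substrate. Compounds at 50 µM. Higher reads as fewer parasites (inferred from which compounds were picked for retests). About 18,000 compounds were tested under these conditions; 0.94% (about 170) showed 50% or more at least once.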

The filed quantity is “Percent Effect” (%).
How 0% and 100% were set is not recorded. Most values in the screen are low, and negative values occur.
Compounds were drawn at random from those tested, without regard to their results.

| # | SMILES | percent effect |
|---|---|---|
| 1 | `N#Cc1c(F)cccc1NCCN` | 1.617 |
| 2 | `CC(C)(CC(N)=O)NC(=O)C1CCC(F)(F)CC1` | 0.5853 |
| 3 | `CCC(NC(=O)c1cc(=O)cc(C)o1)c1ccnn1C` (centres undefined) | -1.84 |
| 4 | `Cn1cc(CNCc2ccc3c(c2)OCCO3)cn1` | 2.983 |
| 5 | `NC(=O)CN(CCc1ccncc1)Cc1ccccc1` | 4.056 |
| 6 | `CC(CC(N)=O)C(=O)NCCCc1ccc(Br)cc1F` (centres undefined) | -6.291 |
| 7 | `Cc1cnc2c(c1)NC(=O)CC(C)N2` (centres undefined) | 8.683 |
| 8 | `COCC(C)Nc1cncc(Br)c1` (centres undefined) | -2.094 |
| 9 | `COC(=O)CSc1nnc(C(F)(F)F)n1C` | 1.313 |
| 10 | `C[n+]1ccn(C(=O)N2CCCC2)c1.[I-]` | -1.913 |
| 11 | `COc1cc(F)ccc1NC(=O)C1CCOCC1` | -0.7527 |
| 12 | `O=C(NCc1cscn1)N1CCOCC1` | -6.659 |
| 13 | `CCOc1cc(C(=O)NCCCOC(C)C)ccn1` | 7.506 |
| 14 | `CC(C)[C@H]1CN(C(=O)c2ccoc2)C[C@@H]1N` | -16.17 |
| 15 | `Cc1nc(CN2[C@@H]3CC[C@H]2CNC(=O)C3)c[nH]1` | -21.65 |
| 16 | `CCc1ccc(C(COC)NS(=O)(=O)CC)o1` (centres undefined) | -8.845 |
| 17 | `C[C@@H]1CCN[C@H](CN)C1` | 13.42 |
| 18 | `CC(C)OC(=O)[C@@H]1CCCN1` | 7.839 |
| 19 | `CCC(CC)(CN)NS(=O)(=O)c1ccc(C(C)=O)cc1` | 6.405 |
| 20 | `Cc1[nH]cnc1CN1CCN(C(=O)c2ccc[nH]2)CC1` | 8.158 |
| 21 | `Cn1nnnc1SCCNCc1ccc(Br)cc1` | 0.6359 |
| 22 | `C[C@@H]1CN(C(=O)c2ccccc2C#N)C[C@]1(C)O` | 10.95 |
| 23 | `COCCNC(=O)c1cnn(C2CCS(=O)(=O)C2)c1C` (centres undefined) | 4.995 |
| 24 | `c1csc(N2CCC(NCCN3CCOCC3)CC2)n1` | 20.58 |
| 25 | `CN(C)c1cccc(NC(=O)c2cc(Cl)ccn2)n1` | 2.165 |
| 26 | `COc1cc(F)c(C(=O)NCC2CCCCO2)c(F)c1` (centres undefined) | 17.96 |
| 27 | `CC(=O)N1CCC(NC(=O)OCC(F)(F)F)CC1` | -4.056 |
| 28 | `Cc1cc(C2CCCN2C(=O)[C@@H]2CCCN2)on1` (some centres undefined) | -5.359 |
| 29 | `CCC(=O)Nc1nc2c(s1)COCC2` | -3.523 |
| 30 | `CC(c1cccnc1)N(C)C(=O)c1nccn1C` (centres undefined) | 3.674 |
| 31 | `CCN1CC(C(=O)Nc2ccc(Br)cn2)CC1=O` (centres undefined) | -17.13 |
| 32 | `NCC(=O)Nc1ccc(-n2cccn2)cc1` | 5.232 |
| 33 | `CC(CO)(CO)NCc1cc2ccccc2s1` | -0.2147 |
| 34 | `CSCCOc1ccccc1CC(N)=O` | 3.344 |
| 35 | `O=C(NCCCOC(F)F)NCc1cccnc1` | -11.83 |
| 36 | `CCS(=O)(=O)NCC(N)c1ccc(C(C)C)cc1` (centres undefined) | -8.799 |
| 37 | `O=C(CSCC(=O)NC1CC1)Nc1ccccc1` | 16.41 |
| 38 | `CNC(=O)CSC(C)C(=O)N(C)C(C)C` (centres undefined) | -5.569 |
| 39 | `CCN(c1ccc(C(=O)NC[C@H](C)O)cc1)C(C)C` | -1.439 |
| 40 | `CCSCC(=O)N(C)Cc1nc(C(C)C)no1` | 9.355 |
| 41 | `CC(C)(C)CNc1ccc(OCCO)nc1` | -5.662 |
| 42 | `Cn1cc(NS(=O)(=O)c2cccc(Br)c2)ccc1=O` | -17.26 |
| 43 | `C[C@H](CO)N(C)C(=O)Cc1cccc(OC(F)(F)F)c1` | 11.04 |
| 44 | `CCS(=O)(=O)CCCN` | -19.33 |
| 45 | `COc1ccc(CC(=O)N2CCNC2=O)cc1` | 15.81 |
| 46 | `Cc1ccnc(OC2CCNCC2)c1` | 36.57 |
| 47 | `CCc1nccn1CCCNC(=O)CSC` | -19.57 |
| 48 | `O=C(Cc1cccc(O)c1)NCCCn1cncn1` | 2.016 |
| 49 | `CN(Cc1ccncc1)S(=O)(=O)c1ncn(C)c1Cl` | 1.164 |
| 50 | `CSCCC(O)C(=O)N(C)CCc1ccncc1` (centres undefined) | -15.47 |
| 51 | `CCS(=O)(=O)CC(=O)Nc1nc2c(C)ccc(C)c2s1` | -17.19 |
| 52 | `Cc1cc(C(=O)NCCCN2CCOCC2)c(C)o1` | 12.88 |
| 53 | `Cc1cc(C(=O)N2CCC(C(N)=O)C2)cc(Cl)c1Br` (centres undefined) | -4.369 |
| 54 | `c1cn2c(n1)COCC2` | 10.98 |
| 55 | `O=S(=O)(CCN1CCCCC1)c1ccccc1` | -2.278 |
| 56 | `CC(C)N(C)Cc1nc(C2CCOC2)no1` (centres undefined) | 23.71 |
| 57 | `NC(=O)c1ccc(N2CCN(CCCO)CC2)cc1` | 8.999 |
| 58 | `COC(=O)c1coc(CN2CCC(O)(CO)CC2)n1` | -8.35 |
| 59 | `COC(=O)NCC(=O)NC1CCCCNC1=O` (centres undefined) | 29.46 |
| 60 | `COc1cccc(S(=O)(=O)CCN(C)CCO)c1` | 4.242 |
| 61 | `NCc1ccc(CN2CCC(C(N)=O)CC2)cc1` | -10.04 |
| 62 | `CO[C@H]1CN(C(=O)CCCc2cn[nH]c2)CC[C@H]1N` | 7.451 |
| 63 | `CNC(=O)[C@H](C)NC(=O)OC(C)(C)C` | -3.211 |
| 64 | `CSCCC(=O)NCc1ccc(C)s1` | -0.521 |
| 65 | `Cc1cc(C(=O)NC2CCC(=O)NC2)cc(Cl)c1Br` (centres undefined) | -7.546 |
| 66 | `c1nc(CN2CCCNCC2)cs1` | 2.71 |
| 67 | `CC(=O)N1CCC(CN(C)Cc2ccc(Br)o2)C1` (centres undefined) | -6.651 |
| 68 | `CC(=O)c1ccccc1NC(=O)CN1CC[C@H](N)C1` | -17.3 |
| 69 | `COc1ccccc1OCC(O)CN1CCOCC1` (centres undefined) | 12.14 |
| 70 | `Cc1nnc(NCc2ccc3nonc3c2)o1` | -16.1 |
| 71 | `Cc1ccc(C(C)NC(=O)c2csc(S(N)(=O)=O)c2)o1` (centres undefined) | 3.296 |
| 72 | `Cc1c(C(=O)N(C)Cc2ccc(C#N)cc2)cnn1C` | 0.2165 |
| 73 | `CSc1ncc(CN2CCC(NC(C)=O)C2)cn1` (centres undefined) | 9.593 |
| 74 | `CNCC1(O)CCCC1` | 20.69 |
| 75 | `Cc1cc(C(=O)N2CCCN(S(C)(=O)=O)CC2)c(C)s1` | -8.318 |
| 76 | `COc1ccccc1OCCN1CCN(CCO)CC1` | -11.98 |

The first 7 entries again:

| SMILES | percent effect |
|---|---|
| `N#Cc1c(F)cccc1NCCN` | 1.617 |
| `CC(C)(CC(N)=O)NC(=O)C1CCC(F)(F)CC1` | 0.5853 |
| `CCC(NC(=O)c1cc(=O)cc(C)o1)c1ccnn1C` (centres undefined) | -1.84 |
| `Cn1cc(CNCc2ccc3c(c2)OCCO3)cn1` | 2.983 |
| `NC(=O)CN(CCc1ccncc1)Cc1ccccc1` | 4.056 |
| `CC(CC(N)=O)C(=O)NCCCc1ccc(Br)cc1F` (centres undefined) | -6.291 |
| `Cc1cnc2c(c1)NC(=O)CC(C)N2` (centres undefined) | 8.683 |

Source: ChEMBL document CHEMBL3988442, “University of Dundee, Small-Polar-MMV Screening Library” (2021).